Measured values as given in article PMC10163288.
The list shows a part of the results.

B1: il2ra_site2_2erj_normal_mot_HHH_b1_07186_000000032_0001_43_57_H_._HHH_b2_05479_af2_0001_0000700043_0000001_0 (protein)
chain: SSSSDEERLELLVEIAELAHNGDLEEAERLAEELLEEAEKRGNELLVRYLELLLEDIRRASSSSS
B2: il2ra_site2_3nfp_sap_28_mot_HHH_b2_06150_000000251_0001_1_17_H_._71fa3b3ce36e4cc21c7110f2bf27d1ce_0001_af2_0001_0000200012_0000001_1_0001 (protein)
chain: SSSSSELEELLREAEELLEEGDPSEAAQVLMEASEIARERNDEEAFREIARVYELALKLYRSSSS
B3: il2ra_site1_2b5i_sap_27_mot_4bcee0fe17877636eff8393fb91a8ef2_0001_000000207_0001_16_30_H_._45a6e126aa060a182dcbb06e484dbe47_0001_1_af2_0001_0000200011_0000001_0 … (protein)
chain: SSSSSEKYDKVYELYKEALKLWKAGKKEEAKKLLEEAIKIAKELGSEKLVAELEALLERLSSSSS
B4: il2ra_site1_3nfp_sap_8_mot_HHH_b1_06287_af2_000000026_0001_41_57_H_._HHH_b2_05531_0001_0000600039_0000001_0_0001 (protein)
chain: SSSSDVRREAQELAREISELVKQGDREEARELLEELEELAEEFGSPLLERLVRQFKESIDSSSSS
B5: il2ra_site2_2erj_sap_20_mot_197fb4328e114ea57185fc38a0d327c6_0001_af2_000000091_0001_18_33_H_._8637e1c0d1640c2ded9eeeee1e5fead8_0001_0001_0000900007_0000001_0_0 … (protein)
chain: SSSSDDEEEDALRVIEEMIERAEEEGDEELLEFLARFLERTVEDVNNPELEELLKRLRELLSSSS
B6: il2ra_site2_2erj_sap_15_mot_HHH_b1_08207_af2_000000250_0001_43_57_H_._HHH_b2_05116_0001_0000200024_0000001_0_0001 (protein)
chain: SSSDKEEAEELYEQAKELLERGNPEEALRVLRRAATLAFESGDEELFSRLAELAHEIARAGSSSS
B7: il2ra_site1_3nfp_normal_mot_HHH_b1_05523_000000054_0001_1_19_H_._HHH_b1_02077_af2_0001_0000300017_0000001_0_af2pred_0001_af2pred_1_swapped (protein)
chain: SSSSSLRERIKELIEEAARLARNGDPEEARKVLEEALELAEELGSKSAERFVRQALKILYSSSSS
B8: il2ra_site2_3nfp_sap_22_mot_HHH_b1_07992_000000217_0001_38_52_H_._HHH_b1_07677_af2_0001_0000300023_0000001_0_0001 (protein)
chain: SSSSSDREWERAVKAALRFAKQVDDEELRRSALEWARAVALMGNDPELEELVEEVARELESSSSS
B9: il2ra_site2_2erj_normal_mot_HHH_b2_06726_000000006_0001_1_16_H_._HHH_b1_02584_0001_0000800018_0000001_0_af2pred_0001_1_af2pred_swapped (protein)
chain: SSSSSSDLEEEAEELIERAKRIEDPEEALIILLDAAAALAHANNEELEREVSKLVHELQSSSSSS
B10: il2ra_site1_1z92_normal_mot_HHH_b1_00499_000000281_0001_1_17_H_._HHH_b2_06820_af2_0001_0000100005_0000001_0 (protein)
chain: SSSSDEREELVARAIVKAVVQVAGLSEEDQEELEKIAEELLKEGVDELEVIKIIDELALKLSSSS
B11: il2ra_site1_3nfp_sap_11_mot_HHH_b1_01159_af2_000000075_0001_1_20_H_._HHH_b1_01434_af2_0001_0000400043_0000001_0_0001_af2pred_0001_af2pred (protein)
chain: SSSSTREFQELVKEVLRALKEGNPEEAKKLIEELEEIAERRNDPAAKFLVEHLEEKLRRLNSSSS
B12: il2ra_site1_1z92_sap_16_mot_HHH_b1_01250_000000104_0001_1_17_H_._HHH_b1_03515_af2_0001_0000100003_0000001_0_0001_af2pred_0001_af2pred_swapped (protein)
chain: SEIEEELREAVEKNDEELLREFIEIALRAAGDPRLVKQLLKILVKRLGLPPEVLERLEELLEELT
B13: il2ra_site2_3nfp_sap_15_mot_HHH_b2_04369_af2_000000237_0001_1_17_H_._99435e095d70fd56fcad6a1c72fb48ac_0001_1_0001_0000100001_0000001_1_0001 (protein)
chain: SSSSDEEEELQKLLERIKELIERGNPEEAEEVSAEAARLAFELNDEESFAILAELLLEIASSSSS
B14: il2ra_site1_1z92_sap_23_mot_cda1634bf71a07e6bb6bfbc1e51fcdca_0001_af2_000000299_0001_1_14_H_._HHH_b1_07386_0001_0000300018_0000001_0_0001 (protein)
chain: SSSSDERLKKSLEIAVEAAVKLAGLSEEQKEELEELAEELAERGVDFLEAIKIVDRLAARLSSSS
B15: il2ra_site1_1z92_normal_mot_HHH_b1_00199_000000288_0001_44_57_H_._ems_p1-16H-GBL-16H-GABBL-15H_0053_0001_0001_0001_af2_0001_0000200005_0000001_0 (protein)
chain: SSSSSDRIEKLAEILEKFARLSGNEEALEVVEEALEAFRKGELDDEQVLELLEEALRLLHSSSSS
B16: il2ra_site2_3nfp_normal_mot_HHH_b2_05139_000000249_0001_1_19_H_._HHH_b1_07677_af2_0001_0000200018_0000001_0 (protein)
chain: SSSSSEEEIRFKAAVLAIELAEKGDEELLRKLNRVIYQLMFEGDPRLVEELEEVIEEIEKSSSSS
B17: il2ra_site1_2b5i_normal_mot_3116615af0ee64d731c1c85d8523bf51_0001_000000216_0001_15_32_H_._HHH_b1_02665_af2_0001_0000200015_0000001_0_af2pred_dldesign_0_af2pred (protein)
chain: SSSSSFRDLMEELAALLAEIAARGDDEAYEKAEELFDKAVKSNDKSILEEAIAYARARLAESSSS
B18: il2ra_site1_2b5i_normal_mot_306e237eb68499aa2c78cb84ccc46c3c_0001_000000068_0001_33_49_H_._HEEHE_1920_af2_0001_0000300023_0000001_0 (protein)
chain: DEEEALKIALERAAEAFNVPSVEVETHNGKVHIHIEGTDEKARSLSNFARQLAEKQGVDVEVEVE
B19: il2ra_site1_3nfp_normal_mot_HHH_b2_07409_000000012_0001_1_20_H_._baccb1425719751948be6dbafe1f343b_0001_0001_0000700059_0000001_0 (protein)
chain: SAEYLLEALLKDAGVPPEEIEEAKRLLKEAEERNAPPEELAELVREILEELGNPRLAELVRKLLK
B20: il2ra_site1_3nfp_normal_mot_HHH_b1_04221_000000040_0001_40_56_H_._HHH_b1_07229_0001_0000100003_0000001_0_af2pred_0001_1_af2pred_swapped (protein)
chain: SSSSSSSSHEIAEEMIRLAEEEGSERLLEKLLEDLEKFAKRLNDPRAEELIKELEEYLSSSSSSS
B21: il2ra_site2_2erj_normal_mot_90f6a21de4ed711cb697bb9f61d9c40c_0001_af2_000000135_0001_36_50_H_._HHH_b2_00034_0002_0000700042_0000001_0_af2pred_0001_af2pred_1 (protein)
chain: SSSDEEVKERLEELLEELVKELNLSEEAERFLRRVVEFLLREGASEEEAERIVEASAEILASSSS
B22: il2ra_site1_1z92_sap_20_mot_HHH_b1_07660_af2_000000114_0001_40_57_H_._HHH_b1_06241_0001_0000100001_0000001_0_0001_af2pred_0001_af2pred_1 (protein)
chain: SEEEELEELLRELGVPPELIKAIKKDFRHAKENGFPPEKVLRAILAALERDGDPAAEVIEELLKK
B23: il2ra_site2_2erj_normal_mot_HHH_b2_08311_000000098_0001_42_56_H_._HHH_b1_05305_af2_0001_0000500054_0000001_0 (protein)
chain: SSSSSEEIERLYELLREADELLANGNPEEAKEVLEEAEELAQELQSEEAEKIVEWLLEALSSSSS
B24: il2ra_site2_2erj_sap_25_mot_HHH_b2_04755_af2_000000255_0001_22_38_H_._HHH_b2_04266_af2_0001_0000400007_0000001_0_0001 (protein)
chain: SSSSDVFEEFAEDVERLARQLEERGNPEEARAQVESALHYAKALNSEEAEEILRELLEELSSSSS

Molecular target: il2ra, P01589
Assay: yeast display titration

Apparent Kd, inactive:
B1 no binding seen
B2 no binding seen
B3 no binding seen
B4 no binding seen
B5 no binding seen
B6 no binding seen
B7 no binding seen
B8 no binding seen
B9 no binding seen
B10 no binding seen
B11 no binding seen
B12 no binding seen
B13 no binding seen
B14 no binding seen
B15 no binding seen
B16 no binding seen
B17 no binding seen
B18 no binding seen
B19 no binding seen
B20 no binding seen
B21 no binding seen
B22 no binding seen
B23 no binding seen
B24 no binding seen

2 records picked at random from the list so far:
Apparent Kd, inactive:
B22 no binding seen
B1 no binding seen
